The other results are listed elsewhere or left out. This data set is noisy: repeats of one test often differ as much as different tests do.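 U2OS cells carrying ACE2 were mixed with U2OS cells carrying full-length spike, and fusion was scored by imaging as the share of nuclei showing both cell types' fluorescent markers. A compound counts as an inhibitory hit when it is non-toxic and its fusion z-score falls below -3, meaning more than three standard deviations below the plate's DMSO wells.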
Tested on: U2OS ACE2 x SARS-CoV-2 spike co-culture
Test: cell-cell fusion (fraction fused) z-score vs plate DMSO control; higher = more fusion
Details: 30 µM; 5 h; toxicity class: non-toxic, passed QC

SMILES	cell-cell fusion (z-score)
C[C@]12CCC(=O)C=C1CCc1ccc(O)cc12	inactive: 2.02
Oc1cc2c(cc1O)C1c3ccc(O)c(O)c3OCC1(O)C2 (stereo not drawn)	inactive: 2.07
CN(C)C(=N)NCCC[C@H](N)C(=O)O.Cl [N^G,N^G-Dimethylarginine hydrochloride]	inactive: 3.35
COc1ccc2cc1Oc1ccc(cc1)C[C@H]1c3cc(c(OC)cc3CCN1C)Oc1c(OC)c(OC)cc3c1[C@H](C2)N(C)CC3	inactive: 2.43
Oc1ncnc2[nH]ncc12 [Allopurinol]	inactive: 2.58
Cc1c(OCC(F)(F)F)ccnc1C[S@@](=O)c1nc2ccccc2[nH]1 [R-(+)-Lansoprazole]	inactive: 2.05
COc1ccc(C2C(=O)c3ccccc3C2=O)cc1	inactive: 0.0852
O=C1c2ccccc2C(=O)C1c1ccc(Br)cc1	inactive: 3.78
CNCC(O)c1ccc(O)c(O)c1.Cl (racemic) [(±)-Epinephrine hydrochloride]	active: -5.58
CC(CCc1ccccc1)NC(C)C(O)c1ccc(O)cc1.Cl (stereo not drawn) [Nylidrin hydrochloride]	inactive: 1.65
CC(CCc1ccccc1)NC(C)C(O)c1ccc(O)cc1.Cl (stereo not drawn)	inactive: -0.946
CS(=O)(=O)O.Cc1c(O)cccc1C(=O)N[C@@H](CSc1ccccc1)[C@H](O)CN1C[C@H]2CCCC[C@H]2C[C@H]1C(=O)NC(C)(C)C [Nelfinavir Mesylate]	active: -7.82
C=CCN1CC[C@]23c4c5ccc(O)c4O[C@H]2[C@@H](OCCOCCOCCOCCOCCOCCOCCOC)CC[C@@]3(O)[C@H]1C5.O=C(O)C(=O)O [Naloxegol oxalate]	inactive: 1.17
CC1=C(/C=C/C(C)=C/C=C/C(C)=C\C(=O)O)C(C)(C)CCC1	inactive: 3.4
CC1=C(/C=C/C(C)=C/C=C/C(C)=C\C(=O)O)C(C)(C)CCC1 [13-cis-retinoic acid]	inactive: 1.48
C/C=C/c1ccc(OC)cc1	inactive: 2.79
O=C(O)[C@H](O)[C@@H](O)[C@H](O[C@@H]1O[C@H](CO)[C@H](O)[C@H](O)[C@H]1O)[C@H](O)CO	inactive: 1.85
C[C@H]1C[C@@H](O)[C@]2(O)[C@@]13CC(=O)OC[C@@]2(C)[C@](C)(O)C(=O)C3	inactive: 1.65
COc1ccnc(CS(=O)c2nc3cc(OC(F)F)ccc3[n-]2)c1OC.O.[Na+] (stereo not drawn) [Pantoprazole Sodium Hydrate]	inactive: 2.79
Cc1cc([C@@H](C)Nc2ccccc2C(=O)O)c2nc(N3CCOCC3)cc(=O)n2c1	inactive: -0.544
N#CC[C@H](C1CCCC1)n1cc(-c2ncnc3[nH]ccc23)cn1 [Ruxolitinib]	inactive: -2.83
C[C@H]1CC2C3CCC4=CC(=O)C=C[C@]4(C)[C@@]3(Cl)[C@@H](O)C[C@]2(C)[C@@]1(O)C(=O)CO (stereo partly drawn) [Beclomethasone]	inactive: 2.5
C#C[C@@H]1CC2C3CCC4=C[C@@H](OC(C)=O)CCC4C3CC[C@]2(C)[C@H]1OC(C)=O (stereo partly drawn)	inactive: 2.31

SMILES	cell-cell fusion (z-score)
CCCCCN(C)CCC(O)(P(=O)([O-])O)P(=O)(O)O.[Na+] [Ibandronate sodium]	inactive: 1.46
N[C@H](Cc1cc(I)c(Oc2ccc(O)c(I)c2)c(I)c1)C(=O)O	inactive: 3.95
Cl.O=C(CCCN1CCC(O)(c2cccc(C(F)(F)F)c2)CC1)c1ccc(F)cc1 [Trifluperidol hydrochloride]	inactive: -2
O=c1[nH]c(=O)n(C2CCCO2)cc1F (stereo not drawn) [Tegafur]	inactive: -0.357
Cl.OCc1c[nH]cn1 [4-Imidazolemethanol hydrochloride]	inactive: 1.58
CC(C)(Sc1cc(C(C)(C)C)c(O)c(C(C)(C)C)c1)Sc1cc(C(C)(C)C)c(O)c(C(C)(C)C)c1 [Probucol]	inactive: 4.19
NCc1ccccc1CC(=O)NC1C(=O)N2C(C(=O)O)=C(CSc3nnnn3CC(=O)O)CSC12 (stereo not drawn)	inactive: 0.899
CC(C(=O)O)c1ccc(C(=O)c2cccs2)cc1 (stereo not drawn)	inactive: 1.63
Cc1ccc(Cl)c(Nc2ccccc2C(=O)[O-])c1Cl.[Na+] [Meclofenamic acid sodium]	inactive: 1.47
N.N.O=C1[O][Pt][O]C(=O)C12CCC2 [Carboplatin]	inactive: 2.14
O=C(NOCC1CC1)c1cc(Br)c(F)c(F)c1Nc1ccc(I)cc1Cl	inactive: 2.97
CC(C)c1c(O)ccc2c1CCC1C(C)(C)CCC[C@]21C (stereo partly drawn)	inactive: 3.01
CC(C)(C)c1ccc(C(=O)CCCN2CCC(OC(c3ccccc3)c3ccccc3)CC2)cc1 [Ebastine]	inactive: 2.16
CC(C)c1ccc2c(c1)CCC1[C@](C)(CN)CCC[C@]21C.O=S(=O)(O)O (stereo partly drawn)	inactive: 0.966
CC(=O)OC/C=C(C)/C=C/C=C(C)/C=C/C1=C(C)CCCC1(C)C	inactive: 3.16
C=C[C@](C)(O)CC[C@@H]1[C@@]2(C)CCCC(C)(C)[C@@H]2CC[C@]1(C)O	inactive: 0.739
CN(C)[C@@H]1C(O)=C(C(N)=O)C(=O)[C@@]2(O)C(O)=C3C(=O)c4c(O)ccc(Cl)c4[C@@H](O)[C@H]3C[C@@H]12.Cl [Demeclocycline hydrochloride]	inactive: 0.518
CCC(/C=C/[C@@H](C)[C@H]1CCC2C3CC=C4C[C@@H](O)CC[C@]4(C)C3CC[C@@]21C)C(C)C (stereo partly drawn)	inactive: 2.68
O=c1ccc2ccc(OCCCCN3CCN(c4cccc5sccc45)CC3)cc2[nH]1 [Brexpiprazole]	inactive: -0.968
C=C(C)[C@H]1CN[C@H](C(=O)O)[C@H]1CC(=O)O [Kainic acid]	inactive: 2.34
O=P([O-])(O)C(Cl)(Cl)P(=O)([O-])O.[Na+].[Na+] [Clodronic acid]	inactive: 1.55
C[C@H]1c2cccc(O)c2C(=O)C2=C(O)[C@]3(O)C(=O)C(C(N)=O)=C(O)[C@@H](N(C)C)[C@@H]3[C@@H](O)[C@@H]21.Cl [Doxycycline hydrochloride]	inactive: 1.45
C[N+]1(C)C2CCC1CC(OC(=O)C(CO)c1ccccc1)C2.O=[N+]([O-])[O-] (stereo not drawn)	inactive: 2.37

Part of the list above, in CSV form:
SMILES,cell-cell fusion (z-score)
CCCCCN(C)CCC(O)(P(=O)([O-])O)P(=O)(O)O.[Na+] [Ibandronate sodium],inactive: 1.46
NCc1ccccc1CC(=O)NC1C(=O)N2C(C(=O)O)=C(CSc3nnnn3CC(=O)O)CSC12 (stereo not drawn),inactive: 0.899
CC(C)(C)c1ccc(C(=O)CCCN2CCC(OC(c3ccccc3)c3ccccc3)CC2)cc1 [Ebastine],inactive: 2.16
CC(=O)OC/C=C(C)/C=C/C=C(C)/C=C/C1=C(C)CCCC1(C)C,inactive: 3.16
C[C@H]1c2cccc(O)c2C(=O)C2=C(O)[C@]3(O)C(=O)C(C(N)=O)=C(O)[C@@H](N(C)C)[C@@H]3[C@@H](O)[C@@H]21.Cl [Doxycycline hydrochloride],inactive: 1.45

Further results

SMILES	cell-cell fusion (z-score)
C[N+]1(C)C2CCC1CC(OC(=O)C(CO)c1ccccc1)C2.O=[N+]([O-])[O-] (stereo not drawn) [Atropine methyl nitrate]	inactive: 2.24
COc1ccc(CNc2nc(N3CCC[C@H]3CO)ncc2C(=O)NCc2ncccn2)cc1Cl [Avanafil]	active: -5.48
CC/C(=C(\c1ccccc1)c1ccc(OCCN(C)C)cc1)c1ccccc1.O=C(O)CC(O)(CC(=O)O)C(=O)O [Tamoxifen Citrate (Nolvadex)]	inactive: 1.62
O=C(O)c1cc(=O)c2ccccc2o1	inactive: 1.4
CO[C@H]1C[C@@H]2CC[C@@H](C)[C@@](O)(O2)C(=O)C(=O)N2CCCC[C@H]2C(=O)O[C@H]([C@H](C)C[C@@H]2CC[C@@H](O)[C@H](OC)C2)CC(=O)[C@H](C)/C=C(\C)[C@@H](O)[C@@H](OC)C(=O)[C@H](C)C[C@H](C)/C=C/C=C/C=C/1C [Rapamycin]	active: -6.13
O=C1[N-]C(=O)C(c2ccccc2)(c2ccccc2)N1.[Na+]	inactive: 0.581
CCN(CC)CCOC(=O)c1ccc(N)cc1Cl.Cl [Chloroprocaine HCl]	inactive: 3.66
OCC(O)[C@@H](O)CO (stereo partly drawn)	inactive: 2.31
CC(=O)O[C@H]1CC2CCC3C(CC[C@@]4(C)C3C[C@H]([N+]3(C)CCCCC3)[C@@H]4OC(C)=O)[C@@]2(C)C[C@@H]1N1CCCCC1.[Br-] (stereo partly drawn)	inactive: 1.15
Nc1ccc(S(=O)(=O)Nc2ccc(Cl)nn2)cc1	inactive: 1.47
OCCN1C[C@H](O)[C@@H](O)[C@H](O)[C@H]1CO [Miglitol]	inactive: 2.8
Cl.c1ccc(CC2=NCCN2)cc1	inactive: 1.34
CCCN1CCCC[C@H]1C(=O)Nc1c(C)cccc1C.Cl [Ropivacaine hydrochloride]	inactive: 5.2
COc1cc(C(C)=O)ccc1OCCCN1CCC(c2noc3cc(F)ccc23)CC1 [Iloperidone]	inactive: 2.73
O=C(O)c1ccc(Nc2ncc3c(n2)-c2ccc(Cl)cc2C(c2c(F)cccc2F)=NC3)cc1	inactive: 2.16
Nc1nc(OCc2cc(Br)cs2)c2[nH]cnc2n1 [Lomeguatrib]	active: -4.32
COC(=O)Nc1ccc(-c2nc(N3CCOCC3)c3cnn(C4CCN(C(=O)OC)CC4)c3n2)cc1	inactive: 1.43
CN(C)CC/C=C1/c2ccccc2Sc2ccc(Cl)cc21.Cl [Chlorprothixene hydrochloride]	inactive: 1.64
CCCC(CCC)C(=O)O[C@H]1C[C@H]2CC[C@@H](C1)[N+]2(C)C.[Br-] [Anisotropine Methylbromide]	inactive: 1.27
O=C(NC(=O)c1ccccc1Cl)Nc1ccc(OC(F)(F)F)cc1	inactive: 2.15
C[C@H](CCC(=O)NCCS(=O)(=O)[O][Na])C1CCC2C3C(C[C@H](O)C21C)C1(C)CC[C@@H](O)CC1C[C@H]3O (stereo partly drawn) [Sodium Taurocholate hydrate]	inactive: 1.78
CCc1ccc(/C=C2/SC(=S)NC2=O)cc1	inactive: -0.128
